From PMC6337541
Results are given in words; binding and its absence hold for the method and conditions named. In cells and extracts the contact can be indirect. Some binding calls cover weakened binding; strength is not graded here.

The chains behind the UniProt entries cited, without tags or fusion partners.
UniProt Q16665: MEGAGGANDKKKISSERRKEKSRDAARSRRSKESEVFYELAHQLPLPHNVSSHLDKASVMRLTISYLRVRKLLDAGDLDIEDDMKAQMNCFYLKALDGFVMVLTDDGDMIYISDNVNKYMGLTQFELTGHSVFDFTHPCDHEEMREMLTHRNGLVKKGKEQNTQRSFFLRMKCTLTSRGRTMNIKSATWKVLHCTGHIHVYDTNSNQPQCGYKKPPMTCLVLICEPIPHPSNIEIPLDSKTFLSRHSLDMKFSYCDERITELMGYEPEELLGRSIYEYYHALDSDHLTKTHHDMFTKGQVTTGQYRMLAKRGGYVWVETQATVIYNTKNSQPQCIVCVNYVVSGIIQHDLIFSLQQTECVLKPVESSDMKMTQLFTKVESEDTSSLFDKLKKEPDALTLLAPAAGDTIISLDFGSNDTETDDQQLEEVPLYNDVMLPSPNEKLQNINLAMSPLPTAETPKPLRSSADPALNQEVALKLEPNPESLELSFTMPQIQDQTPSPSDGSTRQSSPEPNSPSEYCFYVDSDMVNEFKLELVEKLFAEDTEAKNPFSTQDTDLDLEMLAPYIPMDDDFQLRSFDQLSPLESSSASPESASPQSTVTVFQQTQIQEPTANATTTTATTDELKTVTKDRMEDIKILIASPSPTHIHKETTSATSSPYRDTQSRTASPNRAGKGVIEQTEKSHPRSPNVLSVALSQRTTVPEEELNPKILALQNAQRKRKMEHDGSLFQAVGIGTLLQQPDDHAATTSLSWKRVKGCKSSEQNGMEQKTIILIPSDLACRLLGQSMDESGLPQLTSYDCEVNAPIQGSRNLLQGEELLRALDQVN

Assays:
[1] = target: T1, Sentrin/SUMO-specific protease 1 (human (endogenous in H1299)) (UniProt Q9P0U3); test: co-IP; whole cell lysate (1 mg, RIPA buffer) of HIF-1α-overexpressing H1299 cells without chloramphenicol; capture antibody against HIF-1α or SENP-1 (1 μg/mL) overnight at 4 °C, protein A magnetic beads, immunoblot
T1 sequence: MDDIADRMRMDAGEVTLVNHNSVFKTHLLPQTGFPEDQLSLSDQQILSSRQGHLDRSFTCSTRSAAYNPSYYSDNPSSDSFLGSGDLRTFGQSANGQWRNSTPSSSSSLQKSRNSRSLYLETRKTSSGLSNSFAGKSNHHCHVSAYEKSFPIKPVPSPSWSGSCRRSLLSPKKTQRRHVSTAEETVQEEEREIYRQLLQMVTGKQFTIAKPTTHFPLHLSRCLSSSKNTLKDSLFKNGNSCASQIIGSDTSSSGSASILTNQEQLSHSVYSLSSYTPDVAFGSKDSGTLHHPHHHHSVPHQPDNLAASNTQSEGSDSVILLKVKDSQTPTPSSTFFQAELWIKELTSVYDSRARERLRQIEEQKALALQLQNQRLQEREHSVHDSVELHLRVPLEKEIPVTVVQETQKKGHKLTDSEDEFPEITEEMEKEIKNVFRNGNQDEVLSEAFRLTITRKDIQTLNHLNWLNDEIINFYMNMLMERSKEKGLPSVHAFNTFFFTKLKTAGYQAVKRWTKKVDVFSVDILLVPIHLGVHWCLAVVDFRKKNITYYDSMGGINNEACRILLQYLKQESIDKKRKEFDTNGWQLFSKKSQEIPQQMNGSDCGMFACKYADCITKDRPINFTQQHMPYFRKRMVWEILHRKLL

[2] = target: T1, Sentrin/SUMO-specific protease 1 (human (endogenous in H1299)); test: condition: only cells treated with chloramphenicol and bafilomycin A1; co-IP; HIF-1α-overexpressing H1299 cells co-incubated with chloramphenicol and bafilomycin A1 before lysis; capture with anti-HIF-1α or anti-SENP-1, immunoblot (Figure 6C)

binding [1]: binds
binding [2]: no binding
Substance: hypoxia inducible factor-1 alpha (from UniProt Q16665 1-826)
